The nature of the assay: qHTS Assay for Modulators of Lamin A Splicing. The following applies: HeLa LMNA splicing GFP/RFP minigene ratio, 48 h. In a few lines:
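Read-out is the ratio of GFP to DsRed2 object intensity, acquired by 488 nm laser-scanning cytometry on HeLa lamin A-EGFP minigene reporter cells. Compound incubation 48 hrs at 37 °C in Opti-MEM with 2% FBS; DMSO 0.5% final.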
(In qHTS, concentration-response curves come from the screen itself.)

Where [1] appears, read: measured here: GFP splicing reporter channel.
Where [2] appears, read: measured here: RFP viability control channel.

56 molecules from PubChem BioAssay AID1487 (National Center for Advancing Translational Sciences (NCATS), 2009) can be followed below.

The other results are listed elsewhere or left out. The main result of the screen is listed elsewhere. These columns were measured beside it and carry no call. Most of these compounds were active or inconclusive in the main read-out, so they are no random draw. Potencies come from curve fits of mixed quality, noted in brackets.

Regarding `Nc1nnc(CSCc2ccc(Cl)cc2)s1`, the AC50 reads like this: under setting [1], 22.4 µM [rising, single point]; under setting [2], 31.6 µM [rising, single point]. For the molecule `CCOC(=O)N1CCC(NC(=O)Cn2c3c(c(-c4ccccc4Cl)cc2=O)CCC3)CC1`, the half-maximal activity concentration (AC50) under setting [2] is 22.4 µM [rising, single point]. For the molecule `CNc1nc(-c2ccc(N(C)C)cc2)nc2ccccc12`, the AC50 reads like this: under setting [1], 35.5 µM [falling, single point]; under setting [2], 35.5 µM [falling, single point].

Turning to `COc1ccc(C2=CC(=O)C=CC2=O)cc1`, the half-maximal activity concentration (AC50) under setting [2] is 15.8 µM [falling, single point]. Take `CCCn1c(=O)c(C(=O)NCc2ccncc2)c(O)c2ccccc21`: the AC50 under setting [1] is 14.1 µM [rising, single point] and the AC50 under setting [2] was 15.8 µM [rising, single point]. Consider `CCC(=O)N1c2ccc(S(=O)(=O)CCC(=O)NCc3cccs3)cc2CC1C` (stereo not drawn), for which the AC50 under setting [1] is 11.2 µM [falling, single point].

As for `COc1ccc(-n2nnnc2SCC(=O)Nc2ccccc2N2CCOCC2)cc1`, the AC50 was 0.126 µM [falling, full curve, poor fit] under setting [1] and 0.316 µM [falling, partial curve, poor fit] under setting [2]. For `COc1ccc(-c2nc3scc(CCNS(=O)(=O)c4ccc(Oc5ccccc5)cc4)n3n2)cc1`, under setting [2], the half-maximal activity concentration (AC50) is 0.178 µM [falling, full curve, poor fit]. Turning to `CNC(=O)NC(=O)C(C)Oc1ccccc1F` (stereo not drawn), the AC50 under setting [1] is 0.01 µM [rising, full curve, poor fit].

With `O=C(Nc1scc(-c2cccs2)c1C(=O)O)c1cccs1`, the AC50 is, setting by setting: under setting [1], 12.6 µM [rising, single point]; under setting [2], 11.2 µM [rising, partial curve]. Turning to `CCCNc1ncnc2sc(C)c(C)c12`, the AC50 is, setting by setting: under setting [1], 12.6 µM [rising, partial curve]; under setting [2], 25.1 µM [rising, single point]. For the molecule `O=C1CC(N(CCc2ccccc2)C(=S)Nc2ccccc2)C(=O)N1c1ccccc1` (stereo not drawn), the AC50 under setting [2] is 35.5 µM [rising, single point]. As to `COc1cc(C(=O)N2CCN(c3cc(Cl)ccc3Cl)CC2)cc(OC)c1OC`, under setting [2], the AC50 is 1.26 µM [rising, full curve, poor fit].

Take `CC(=O)Nc1cccc(OCc2ccc(S(=O)(=O)Cc3ccccc3)cc2)c1`: the half-maximal activity concentration (AC50) is 2 µM [rising, partial curve, poor fit] under setting [1] and 12.6 µM [rising, partial curve] under setting [2].

With `CCN(C(=O)COC(=O)c1n[nH]c2ccccc12)C1CCS(=O)(=O)C1` (stereo not drawn), the AC50 is 0.316 µM [rising, partial curve, poor fit] under setting [1] and 0.251 µM [rising, partial curve] under setting [2]. Regarding `Nc1cc2nn(-c3ccccc3)nc2cc1Cl`, the AC50 under setting [2] was 25.1 µM [falling, partial curve].

Turning to `ON=Cc1cccn1-c1ccccc1`, under setting [1], the AC50 was 35.5 µM [rising, single point]. `CCOC(=O)c1ccc(N2C(=O)C(CC(=O)NC)N(CCc3ccc(OC)c(OC)c3)C2=S)cc1` (stereo not drawn): the AC50 under setting [1] is 35.5 µM [falling, single point] and the AC50 under setting [2] was 17.8 µM [falling, single point]. For `O=c1[nH]c2ccc(S(=O)(=O)N3CCN(c4ccccc4F)CC3)cc2s1`, the AC50 is, setting by setting: under setting [1], 31.6 µM [rising, single point]; under setting [2], 22.4 µM [rising, single point]. Take `CC(Oc1ccc(Cl)cc1Cl)C(=O)NCc1ccncc1` (stereo not drawn): the AC50 under setting [2] was 11.2 µM [rising, partial curve]. Take `CCOC(=O)c1c(C)[nH]c(C2=NNC(=Nc3ccccc3)SC2)c1C`: under setting [2], the AC50 was 35.5 µM [rising, single point]. As for `Cc1ccc(N/C(N)=N/c2nc(C(F)(F)F)cc(C(F)(F)F)n2)cc1`, under setting [1], the AC50 is 0.251 µM [rising, full curve, poor fit]. For the molecule `Cc1cc2c(cc1NC(=O)c1ccccc1Cl)n(C)c(=O)c(=O)n2C`, the AC50 by setting is: under setting [1], 0.0501 µM [falling, full curve, poor fit]; under setting [2], 3.98 µM [falling, partial curve, poor fit]. Turning to `Cc1ccn2c(=O)cc(CSc3nnc(C)s3)nc2c1`, the AC50 under setting [2] was 1.58 µM [rising, full curve, poor fit]. In the case of `CCCCSc1nnc(CSc2nc3nc(C)cc(C)n3n2)o1`, the AC50 under setting [2] was 4.47 µM [rising, full curve, poor fit]. For `O=C(c1cccs1)N1N=C(c2ccc(O)cc2)CC1c1ccccc1` (stereo not drawn), the half-maximal activity concentration (AC50) was 35.5 µM [rising, single point] under setting [1] and 35.5 µM [rising, single point] under setting [2].

`Cc1ccc(C)c(N2CCN(CCCNC(=O)c3cnn(-c4ccccc4)c3C3CCN(C(=O)OC(C)(C)C)CC3)CC2)c1`: the AC50 reads like this: under setting [1], 17.8 µM [falling, partial curve]; under setting [2], 17.8 µM [falling, partial curve].

As to `CCN(CC)S(=O)(=O)c1ccc2oc(C(=O)N3CCCCCC3)c(C)c2c1`, the AC50 under setting [2] is 15.8 µM [rising, single point]. Same read-out and setting: with `COc1ccc(C2C(CN3CCOCC3)C(=O)N2c2ccccc2)cc1` (stereo not drawn) the figure was 3.98 µM [rising, partial curve, poor fit]; with `CCOC(=O)c1ccc(NC(=S)NCCc2ccccc2F)cc1`, 0.0794 µM [falling, full curve, poor fit]; with `CCNC(=O)CSc1nc2ccccc2c(=O)n1CCCOC(C)C`, 31.6 µM [rising, single point]. In the case of `O=C(NCc1ccco1)c1cc2sccc2n1Cc1ccccc1`, the AC50 under setting [2] was 35.5 µM [rising, single point]. As for `COc1ccc(COC(=O)c2ccc(N3CCCC3=O)cc2)cc1F`, under setting [2], the half-maximal activity concentration (AC50) is 11.2 µM [rising, partial curve, poor fit]. For `COc1ccc(Nc2c(-c3ccc(OC)cc3)nc3cnccn23)cc1`, the AC50 runs as follows: under setting [1], 6.31 µM [falling, full curve]; under setting [2], 3.98 µM [falling, full curve].

For `Nc1nc(-c2ccccc2)c(N=Nc2ccc(Cl)cc2)s1`, the concentration at half-maximal activity (AC50) under setting [2] is 0.0282 µM [rising, full curve, poor fit]. On to `N=C1SC(c2ccccc2)C(=O)N1c1ncc(Cc2ccccc2)s1` (stereo not drawn), for which the AC50 under setting [1] was 20 µM [rising, partial curve, poor fit] and the AC50 under setting [2] was 14.1 µM [rising, partial curve]. Consider `c1ccc2c(Nc3ccncc3)nc(-c3ccc4c(c3)OCO4)nc2c1`, for which the half-maximal activity concentration (AC50) was 22.4 µM [falling, partial curve] under setting [1] and 35.5 µM [falling, single point] under setting [2]. For the molecule `CN(C)CCOC(=O)C1(c2ccccc2)CCOCC1`, the AC50 under setting [2] was 0.0794 µM [falling, full curve, poor fit].

As for `Cc1ccc(-n2c(N)c(C(=O)Nc3c(C)n(C)n(-c4ccccc4)c3=O)c3nc4ccccc4nc32)cc1C`, the AC50 is, setting by setting: under setting [1], 35.5 µM [falling, single point]; under setting [2], 35.5 µM [falling, single point].

On to `COC(=O)C(C)NC(=O)C1CCCN1S(=O)(=O)c1cc(C)c(Cl)cc1C` (stereo not drawn), for which, under setting [1], the AC50 was 22.4 µM [rising, single point]. On the same count and under the same terms, the same measure for `FC(F)c1nnc2ccc(Cl)nn12`: 6.31 µM [falling, partial curve, poor fit]. In the case of `COc1ccc(Nc2ncnc3c2cnn3Cc2ccc(C)cc2)cc1`, the AC50 under setting [2] is 12.6 µM [rising, single point]. Turning to `CCOC(=O)N1CCN(c2ncnc3c2cnn3-c2ccc(Cl)cc2)CC1`, the AC50 under setting [2] is 10 µM [rising, partial curve]. Consider `Cc1ccc2nc(NC(=O)C3CCCN(S(=O)(=O)c4cnc[nH]4)C3)sc2c1` (stereo not drawn), for which the AC50 is 31.6 µM [rising, single point] under setting [1] and 35.5 µM [rising, single point] under setting [2]. On to `COc1cccc(OCC(=O)NC2CC(=O)N(c3cccc(OC)c3)C2)c1` (stereo not drawn), for which the AC50 under setting [1] is 35.5 µM [rising, partial curve, poor fit] and the AC50 under setting [2] is 25.1 µM [rising, single point].

In the case of `CN1C(=O)/C(=N\OC(=O)c2cccc3ccccc23)c2ccccc21`, the AC50 runs as follows: under setting [1], 35.5 µM [falling, single point]; under setting [2], 35.5 µM [falling, single point]. Turning to `NC(=O)N1c2ccccc2CC(=O)c2ccccc21`, under setting [1], the AC50 was 2.51 µM [rising, partial curve, poor fit]. For `COCCNC(=S)N(CCc1c(C)[nH]c2ccc(C)cc12)Cc1cc(OC)c(OC)c(OC)c1`, the half-maximal activity concentration (AC50) reads like this: under setting [1], 10 µM [rising, partial curve]; under setting [2], 11.2 µM [rising, partial curve]. For `CCN1CCN(CC(=O)c2cc(Cl)ccc2Cl)CC1`, the concentration at half-maximal activity (AC50) under setting [2] is 4.47 µM [falling, full curve, poor fit]. For the molecule `O=C(OCCOc1ccc(Br)cc1)c1ccc(Cl)nc1`, the AC50 under setting [2] is 0.00316 µM [falling, full curve, poor fit]. Take `Cc1cc(C)c(NC(=O)CS(=O)CC(=O)N2CCN(c3ccc(F)cc3)CC2)c(C)c1` (stereo not drawn): under setting [2], the AC50 is 35.5 µM [rising, single point].

Regarding `O=C(Nc1nc(-c2ccccc2)cs1)NC1CCCCC1`, under setting [2], the AC50 is 35.5 µM [rising, single point]. With `COc1ccc(-n2ccnc2SCC(=O)NCc2ccc3c(c2)OCO3)cc1`, under setting [1], the AC50 is 20 µM [rising, single point]. For `O=C(O)CCC(=O)O`, the AC50 was 10 µM [falling, single point] under setting [1] and 0.316 µM [falling, single point] under setting [2]. With `NNC(=S)NCc1ccc2c(c1)OCO2`, under setting [1], the AC50 is 0.0224 µM [falling, full curve, poor fit]. On to `CN(C)S(=O)(=O)c1cccc(NC(=O)COC(=O)c2cc(-c3cccc(Br)c3)nc3ccccc23)c1`, for which the concentration at half-maximal activity (AC50) under setting [2] is 12.6 µM [rising, single point].

By AC50 is commonly meant the midpoint of the concentration-response curve, whichever way the signal moves.
